Laboratory results as given in PMC10476801.
Results are given in words; binding and its absence hold for the method and conditions named. In cells and extracts the contact can be indirect. For part of these data: Binding can be weak; no strength is given. Tags and fused reporters may be left off the sequences shown.

T1: HA-tagged endothelial lipase (LIPG-HA) (UniProt Q9Y5X9)
T1 sequence: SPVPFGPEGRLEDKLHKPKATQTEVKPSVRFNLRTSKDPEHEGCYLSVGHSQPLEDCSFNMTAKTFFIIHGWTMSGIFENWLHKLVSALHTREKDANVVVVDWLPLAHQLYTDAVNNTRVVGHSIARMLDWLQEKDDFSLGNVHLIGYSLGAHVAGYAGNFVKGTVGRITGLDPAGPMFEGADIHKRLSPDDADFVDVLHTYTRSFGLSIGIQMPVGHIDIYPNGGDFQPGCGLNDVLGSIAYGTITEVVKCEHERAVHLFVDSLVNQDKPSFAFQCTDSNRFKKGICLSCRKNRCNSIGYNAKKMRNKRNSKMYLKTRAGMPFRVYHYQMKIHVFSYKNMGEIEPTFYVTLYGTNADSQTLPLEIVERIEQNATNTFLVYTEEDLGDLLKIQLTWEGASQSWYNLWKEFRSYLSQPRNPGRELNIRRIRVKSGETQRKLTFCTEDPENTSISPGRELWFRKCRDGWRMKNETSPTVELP

B1: HA-tagged endothelial lipase (LIPG-HA) (enzyme, UniProt Q9Y5X9 21-500)
chain: SPVPFGPEGRLEDKLHKPKATQTEVKPSVRFNLRTSKDPEHEGCYLSVGHSQPLEDCSFNMTAKTFFIIHGWTMSGIFENWLHKLVSALHTREKDANVVVVDWLPLAHQLYTDAVNNTRVVGHSIARMLDWLQEKDDFSLGNVHLIGYSLGAHVAGYAGNFVKGTVGRITGLDPAGPMFEGADIHKRLSPDDADFVDVLHTYTRSFGLSIGIQMPVGHIDIYPNGGDFQPGCGLNDVLGSIAYGTITEVVKCEHERAVHLFVDSLVNQDKPSFAFQCTDSNRFKKGICLSCRKNRCNSIGYNAKKMRNKRNSKMYLKTRAGMPFRVYHYQMKIHVFSYKNMGEIEPTFYVTLYGTNADSQTLPLEIVERIEQNATNTFLVYTEEDLGDLLKIQLTWEGASQSWYNLWKEFRSYLSQPRNPGRELNIRRIRVKSGETQRKLTFCTEDPENTSISPGRELWFRKCRDGWRMKNETSPTVELP
B2: LIPG noncleaved mutant R330A (enzyme, UniProt Q9Y5X9 21-500)
chain: SPVPFGPEGRLEDKLHKPKATQTEVKPSVRFNLRTSKDPEHEGCYLSVGHSQPLEDCSFNMTAKTFFIIHGWTMSGIFENWLHKLVSALHTREKDANVVVVDWLPLAHQLYTDAVNNTRVVGHSIARMLDWLQEKDDFSLGNVHLIGYSLGAHVAGYAGNFVKGTVGRITGLDPAGPMFEGADIHKRLSPDDADFVDVLHTYTRSFGLSIGIQMPVGHIDIYPNGGDFQPGCGLNDVLGSIAYGTITEVVKCEHERAVHLFVDSLVNQDKPSFAFQCTDSNRFKKGICLSCRKNRCNSIGYNAKKMRNKANSKMYLKTRAGMPFRVYHYQMKIHVFSYKNMGEIEPTFYVTLYGTNADSQTLPLEIVERIEQNATNTFLVYTEEDLGDLLKIQLTWEGASQSWYNLWKEFRSYLSQPRNPGRELNIRRIRVKSGETQRKLTFCTEDPENTSISPGRELWFRKCRDGWRMKNETSPTVELP
B3: LIPG N-glycosylation mutant N393A (enzyme, UniProt Q9Y5X9 21-500)
chain: SPVPFGPEGRLEDKLHKPKATQTEVKPSVRFNLRTSKDPEHEGCYLSVGHSQPLEDCSFNMTAKTFFIIHGWTMSGIFENWLHKLVSALHTREKDANVVVVDWLPLAHQLYTDAVNNTRVVGHSIARMLDWLQEKDDFSLGNVHLIGYSLGAHVAGYAGNFVKGTVGRITGLDPAGPMFEGADIHKRLSPDDADFVDVLHTYTRSFGLSIGIQMPVGHIDIYPNGGDFQPGCGLNDVLGSIAYGTITEVVKCEHERAVHLFVDSLVNQDKPSFAFQCTDSNRFKKGICLSCRKNRCNSIGYNAKKMRNKRNSKMYLKTRAGMPFRVYHYQMKIHVFSYKNMGEIEPTFYVTLYGTNADSQTLPLEIVERIEQAATNTFLVYTEEDLGDLLKIQLTWEGASQSWYNLWKEFRSYLSQPRNPGRELNIRRIRVKSGETQRKLTFCTEDPENTSISPGRELWFRKCRDGWRMKNETSPTVELP

Legend:
Experiment in all cases: co-IP; HA-tagged LIPG (or its mutants) and Flag-tagged LHBs (or MHBs, SHBs, preS1 2–48 aa) overexpressed in Huh7 cells; lysates incubated with rabbit anti-HA or anti-Flag antibody overnight at 4°C, Protein G Mag Sepharose, immunoblotting
[1] = biological target: T1, HA-tagged endothelial lipase (LIPG-HA)
[2] = biological target: HBV middle surface protein (MHBs) (hepatitis B virus)
[3] = biological target: HBV small surface protein (SHBs) (hepatitis B virus)
[4] = biological target: Flag-tagged HBV large surface protein (LHBs-Flag) (hepatitis B virus)

Row | Molecule | binding [1] | binding [2] | binding [3] | binding [4]
1 | Flag-tagged HBV large surface protein (LHBs-Flag) (hepatitis B virus) | binds | – | – | –
2 | B1 | – | no binding | no binding | binds
3 | B2 | – | – | – | binds
4 | B3 | – | – | – | binds
